From US4778789A, “Piperazinecarboxamides having a phenoxyalkyl or thiophenoxyalkyl side chain” (priority 1985, dated 1988)

Experiments:
[1] = system: isolation induced aggressive behaviour (male NMRI mice); settings: background statement; result in words; cited from earlier work
[2] = system: isolation induced aggressive behaviour (male NMRI mice); assay: Isolation induced aggressive behaviour test; assay type: in vivo, mouse (male NMRI mice); settings: Mus musculus, sc, 0.5 h, read-out: ED50 (dose inhibiting aggressive behaviour among 50 percent of the pairs)
Text: This type of aggression is interesting because it is known that this kind of emotional behaviour might be located in limbic structures in the brain (MacLean, P. D., Psychosom. Med. 11, 338 (1949)).
Every week male NMRI mice, weighing 20-22 g, were isolated in Makrolon cages for three weeks with diet and water ad libitum. A piece of cardboard was placed between the cages to prevent visual contact.
To test aggressiveness the mice were paired in a neutral area, a beaker (14 cm high and diameter 14 cm). A pair is considered aggressive if both the animals show clear signs of fighting within 5 minutes. This fighting is characterized by biting and vocalization. A soon as fighting is seen, the mice are separated and brought to their home cage (every second mouse is marked). […] Animals showing no aggression are discarded.
The test substance is administered s.c. (0.2-0.4 ml/20 g). The mice are paired 0.5 hour after the injection for trials of 5 minutes' duration.
The ED50 -value (mg/kg) reported is the dose inhibiting aggressive behaviour among 50 percent of the pairs 0.5 hour after drug administration.

In the case of `CN1C(=O)CN=C(c2ccccc2)c2cc(Cl)ccc21` [Diazepam], the “inhibition of isolation induced aggressive behaviour, clinically used drugs” value [1] is listed as “active” and the ED50 [2] is listed as 6.7 mg/kg.
